Several values for one entry are separate records, joined by “and”; a condition that tells them apart may be missing. Equal entries are not always repeated. Further values from the same series stand in other lists.
System: RPE1 cells
Assay: Cell growth assay (IncuCyte confluence over 72 h)
Format: cell-based
Settings: listed as 8F20
Procedure, shortened: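 Phase confluence (% area covered by cells) imaged every 2 h for 72 h after compound addition; cells in DMEM/10% FBS, seeded 24 h before treatment. Controls were 0.1% DMSO, 250 nM Torin1 and 200 ng/mL Bafilomycin (final). Each point averages three wells.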

In the case of `Cc1ccc(C(=O)N(CCCN)[C@@H](c2nc3cc(Cl)ccc3c(=O)n2Cc2ccccc2)C(C)C)cc1` [compound 3, (R)-N-(3-aminopropyl)-N-(1-(3-benzyl-7-chloro-4-oxo-3,4-dihydroquinazolin-2-yl)−2-methylpropyl)−4-methylbenzamide], the RPE1 cell growth (100 nM, 0 h) was 19 and 11 and 16, the RPE1 cell growth (100 nM, 2 h) was 21 and 12 and 18 and the RPE1 cell growth (100 nM, 4 h) was 20 and 11 and 19. The RPE1 cell growth (100 nM, 6 h) was 19 and 10 and 16, the RPE1 cell growth (100 nM, 8 h) was 18 and 9 and 16 and the RPE1 cell growth (100 nM, 10 h) was 17 and 9 and 15. The RPE1 cell growth (100 nM, 12 h) was 16 and 8 and 14, the RPE1 cell growth (100 nM, 14 h) was 15 and 8 and 14 and the RPE1 cell growth (100 nM, 16 h) was 14 and 7 and 13. The RPE1 cell growth (500 nM, 0 h) was 22 and 18 and 20, the RPE1 cell growth (500 nM, 2 h) was 25 and 18 and 22 and the RPE1 cell growth (500 nM, 4 h) was 24 and 17 and 23. The RPE1 cell growth (500 nM, 6 h) was 23 and 16 and 21, the RPE1 cell growth (500 nM, 8 h) was 22 and 14 and 21 and the RPE1 cell growth (500 nM, 10 h) was 20 and 14. For the same compound, the RPE1 cell growth (500 nM, 12 h) was 20 and 13 and 18, the RPE1 cell growth (500 nM, 14 h) was 18 and 11 and 17 and the RPE1 cell growth (500 nM, 16 h) was 18 and 11 and 16. For the same compound, the RPE1 cell growth (500 nM, 18 h) was 17 and 10 and 14, the RPE1 cell growth (500 nM, 20 h) was 15 and 9 and 14 and the RPE1 cell growth (500 nM, 22 h) was 17 and 9 and 13. For the same compound, the RPE1 cell growth (500 nM, 26 h) was 18 and 12 and 13, the RPE1 cell growth (500 nM, 28 h) was 19 and 11 and 14 and the RPE1 cell growth (500 nM, 30 h) was 13 and 12 and 14. The RPE1 cell growth (500 nM, 32 h) was 22 and 12 and 15, the RPE1 cell growth (500 nM, 60 h) was 37 and 19 and 30 and the RPE1 cell growth (500 nM, 62 h) was 37 and 19 and 32. The RPE1 cell growth (500 nM, 64 h) was 39 and 20 and 32, the RPE1 cell growth (500 nM, 68 h) was 38 and 19 and 35 and the RPE1 cell growth (1 uM, 0 h) was 18 and 17 and 19. For the same compound, the RPE1 cell growth (1 uM, 2 h) was 20 and 21 and 19, the RPE1 cell growth (1 uM, 4 h) was 21 and 19 and the RPE1 cell growth (1 uM, 6 h) was 21 and 20 and 17. The RPE1 cell growth (1 uM, 8 h) was 20 and 21 and 16, the RPE1 cell growth (1 uM, 10 h) was 18 and 19 and 14 and the RPE1 cell growth (1 uM, 12 h) was 17 and 18 and 12. The RPE1 cell growth (1 uM, 14 h) was 16 and 17 and 12, the RPE1 cell growth (1 uM, 16 h) was 15 and 17 and 11 and the RPE1 cell growth (1 uM, 18 h) was 14 and 17 and 11. The RPE1 cell growth (1 uM, 20 h) was 14 and 15 and 10, the RPE1 cell growth (1 uM, 22 h) was 13 and 19 and 11 and the RPE1 cell growth (1 uM, 24 h) was 13 and 21 and 11. The RPE1 cell growth (1 uM, 26 h) was 13 and 19 and 10, the RPE1 cell growth (1 uM, 28 h) was 13 and 22 and 11 and the RPE1 cell growth (1 uM, 30 h) was 13 and 21 and 12. The RPE1 cell growth (1 uM, 32 h) was 14 and 24 and 13, the RPE1 cell growth (1 uM, 58 h) was 36 and 21 and the RPE1 cell growth (1 uM, 60 h) was 32 and 33 and 21. The RPE1 cell growth (1 uM, 62 h) was 31 and 35 and 21, the RPE1 cell growth (1 uM, 64 h) was 32 and 38 and 22 and the RPE1 cell growth (1 uM, 66 h) was 33 and 37 and 21. The RPE1 cell growth (1 uM, 68 h) was 33 and 36 and 22, the RPE1 cell growth (1 uM, 70 h) was 34 and 40 and 20 and the RPE1 cell growth (1 uM, 72 h) was 37 and 41 and 21. The RPE1 cell growth (3 uM, 0 h) was 15 and 18 and 17, the RPE1 cell growth (3 uM, 2 h) was 22 and 20 and the RPE1 cell growth (3 uM, 4 h) was 21 and 19 and 22. For the same compound, the RPE1 cell growth (3 uM, 6 h) was 22 and 17, the RPE1 cell growth (3 uM, 8 h) was 22 and 16 and 20 and the RPE1 cell growth (3 uM, 10 h) was 21 and 15 and 20. For the same compound, the RPE1 cell growth (3 uM, 12 h) was 21 and 14 and 19, the RPE1 cell growth (3 uM, 14 h) was 21 and 14 and 17 and the RPE1 cell growth (3 uM, 16 h) was 19 and 13 and 17. For the same compound, the RPE1 cell growth (3 uM, 18 h) was 20 and 11 and 16, the RPE1 cell growth (3 uM, 20 h) was 18 and 11 and 16 and the RPE1 cell growth (3 uM, 22 h) was 20 and 12 and 15. The RPE1 cell growth (3 uM, 24 h) was 21 and 12 and 14, the RPE1 cell growth (3 uM, 26 h) was 21 and 13 and 15 and the RPE1 cell growth (3 uM, 28 h) was 23 and 14. For the same compound, the RPE1 cell growth (3 uM, 30 h) was 24 and 15 and 14, the RPE1 cell growth (3 uM, 32 h) was 25 and 15 and 16 and the RPE1 cell growth (3 uM, 58 h) was 35 and 19 and 27. The RPE1 cell growth (3 uM, 60 h) was 36 and 20 and 26, the RPE1 cell growth (3 uM, 62 h) was 37 and 19 and 27 and the RPE1 cell growth (3 uM, 64 h) was 37 and 20 and 27. The RPE1 cell growth (3 uM, 66 h) was 39 and 22 and 27, the RPE1 cell growth (3 uM, 68 h) was 38 and 21 and 28 and the RPE1 cell growth (3 uM, 70 h) was 40 and 20 and 28. The RPE1 cell growth (5 uM, 0 h) was 14 and 17, the RPE1 cell growth (5 uM, 2 h) was 21 and 19 and the RPE1 cell growth (5 uM, 4 h) was 19 and 20. For the same compound, the RPE1 cell growth (5 uM, 6 h) was 23 and 17 and 20, the RPE1 cell growth (5 uM, 8 h) was 23 and 18 and 20 and the RPE1 cell growth (5 uM, 10 h) was 22 and 16 and 19. The RPE1 cell growth (5 uM, 12 h) was 24 and 16 and 19, the RPE1 cell growth (5 uM, 14 h) was 26 and 14 and 19 and the RPE1 cell growth (5 uM, 16 h) was 26 and 14 and 19. The RPE1 cell growth (5 uM, 20 h) was 28 and 14 and 19, the RPE1 cell growth (10 uM, 0 h) was 14 and 18 and the RPE1 cell growth (10 uM, 2 h) was 21 and 17 and 20. The RPE1 cell growth (10 uM, 4 h) was 22 and 16, the RPE1 cell growth (10 uM, 6 h) was 22 and 16 and the RPE1 cell growth (10 uM, 8 h) was 24 and 18 and 22. The RPE1 cell growth (10 uM, 10 h) was 23 and 17, the RPE1 cell growth (10 uM, 12 h) was 29 and 19 and 23 and the RPE1 cell growth (10 uM, 14 h) was 31 and 16 and 23. For the same compound, the RPE1 cell growth (10 uM, 16 h) was 32 and 17 and 23 and the RPE1 cell growth (10 uM, 20 h) was 32 and 17 and 26.

— article PMC11589570, “Critical assessment of LC3/GABARAP ligands used for degrader development and ligandability of LC3/GABARAP binding pockets” (Nature Communications, 2024)
